Experimental data from PMC5824958.

Target: T1, BRI2 (integral membrane protein 2B) (rat (endogenous in brain)) (UniProt Q5XIE8)
T1 sequence: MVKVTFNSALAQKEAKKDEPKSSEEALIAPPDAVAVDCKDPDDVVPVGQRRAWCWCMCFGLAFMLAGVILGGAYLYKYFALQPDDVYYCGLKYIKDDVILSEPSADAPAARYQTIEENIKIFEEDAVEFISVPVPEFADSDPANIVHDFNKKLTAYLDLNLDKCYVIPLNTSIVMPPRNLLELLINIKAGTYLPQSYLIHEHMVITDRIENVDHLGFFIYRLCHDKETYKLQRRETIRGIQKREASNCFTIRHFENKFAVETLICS
Assay: affinity purification with mass spectrometry; mouse anti-BRI2 antibody (N-terminal region) on Dynabeads Protein G; pre-cleared rat cerebral cortex, hippocampus and cerebellum lysates (50 mM Tris-HCl pH 8.0, 120 mM NaCl, 4% CHAPS), overnight at 4 °C; co-precipitated proteins identified by nano-HPLC-MS/MS; hits absent from the two mock IPs or with a PSM ratio >= 2.0

B1: Disks large-associated protein 3 (protein, UniProt P97838 1-977)
chain: MRGYHGDRGSHPRPARFADQQHMDVGPAARAPYLLGSREAFSTEPRFCAPRAGLGHLSPEGPLSLSEGPSSVGPEGGPGGVGAGGSSSTFPRMYPGQGPFDTCEDCVGHPQGKGATRLLPTFLDQFEKQLPVQQDGFHTLPYQRGPAGPGPGPGSGAAPEARSESPSRIRHLVHSVQKLFAKSHSLEAPGKRDYNGPKAEGRSSSGGDSYSGPGSGGPPTSHHHHHHHHHHHHQSRHGKRSKSKDRKGDGRHQTKATGWWSSDDNLDSDSGFLGGRPPGEPGGPFCLDAPDGSYRDLSFKGRSGGSEGRCLACTGMSMSLDGQSVKRSAWHTMMVSQGRDGYPGAGPGKGLLGPETKAKARTYHYLQVPQDDWGGYPTGGKDGEIPCRRMRSGSYIKAMGDEESGDSDGSPKTSPKALARRFASRRSSSVDTARINCCVPPRIHPRSSIPGYSRSLTTGQLSEEFNQQLEAVCGSVFGELESQAVDALDLPGCFRMRSHSYLRAIQAGCSQDDDCLPLLAAPASVSGRPGSSFNFRKAPPPIPPGSQAPPRISITAQSSTDSAHESFTAAEGPARRCSSADGLDGPTMGARTLELAPVPPRASPKPPTLIIKTIPGREELRSLARQRKWRPSIGVQVETISDSDTENRSRREFHSIGVQVEEDKRRARFKRSNSVTAGVQADLELEGLAGLATVATEDKALQFGRPFQRQASEPQPGPRAPTYSVFRTVHTQGQWAYREGYPLPYEPPATDGSPGPPPVPAPGPGSGRRDSWMERGSRSLPDSGRTSPCPRDGEWFIKMLRAEVEKLEHWCQQMEREAEDYELPEEILEKIRSAVGSTQLLLSQKVQQFFRLCQQSLDPTAFPVPTFQDLAGFWDLLQLSIEDVTLKFLELQQLKANSWKLLEPKEEKKVPPPIPKKPSRGRGVPVKERSLDSVDRQRQEARKRLLAAKRAASFRHSSATESADSIEIYIPEAQTRL
binding: binds

B2: Amphiphysin (protein, UniProt O08838 1-683)
chain: MADIKTGIFAKNVQKRLNRAQEKVLQKLGKADETKDEQFEEYVQNFKRQEAEGTRLQRELRGYLAAIKGMQEASMKLTESLHEVYEPDWYGREDVKMVGEKCDVLWEDFHQKLVDGSLLTLDTYLGQFPDIKNRIAKRSRKLVDYDSARHHLEALQSSKRKDESRISKAEEEFQKAQKVFEEFNVDLQEELPSLWSRRVGFYVNTFKNVSSLEAKFHKEIAVLCHKLYEVMTKLGDQHADKAFSIQGAPSDSGPLRIAKTPSPPEEASPLPSPTASPNHTLAPASPAPVRPRSPSQTRKGPPVPPLPKVTPTKELQQENIINFFEDNFVPEINVTTPSQNEVLEVKKEETLLDLDFDPFKPDVTPAGSAAATHSPMSQTLPWDLWTTSTDLVQPASGGSFNDFTQPQDTSLFTMQTDQNMAETEQALPTEPQAEEPPTTAAAPTAGLDLGLEMEEPKEEAAIPPGTDAGETVGTEGSTGEEAEAEKAALPAGEGESPEGAKIDVESTELASSESPQAAELEAGAPQEKVIPSVVIEPASNHEGEEHQETTTGTETREATEDVAPQGPAGEKQELATEPTPLDSQAATPAPAGAVDASLSAGDAAQELPPGFLYKVETLHDFEAANSDELTLQRGDVVLVVPSDSEADQDAGWLVGVKESDWLQYRDLATYKGLFPENFTRHLE
binding: binds

B3: Dynamin-1 (protein, UniProt P21575 1-864)
chain: MGNRGMEDLIPLVNRLQDAFSAIGQNADLDLPQIAVVGGQSAGKSSVLENFVGRDFLPRGSGIVTRRPLVLQLVNSTTEYAEFLHCKGKKFTDFEEVRLEIEAETDRVTGTNKGISPVPINLRVYSPHVLNLTLVDLPGMTKVPVGDQPPDIEFQIRDMLMQFVTKENCLILAVSPANSDLANSDALKIAKEVDPQGQRTIGVITKLDLMDEGTDARDVLENKLLPLRRGYIGVVNRSQKDIDGKKDITAALAAERKFFLSHPSYRHLADRMGTPYLQKVLNQQLTNHIRDTLPGLRNKLQSQLLSIEKEVDEYKNFRPDDPARKTKALLQMVQQFAVDFEKRIEGSGDQIDTYELSGGARINRIFHERFPFELVKMEFDEKELRREISYAIKNIHGIRTGLFTPDLAFEATVKKQVQKLKEPSIKCVDMVVSELTSTIRKCSEKLQQYPRLREEMERIVTTHIREREGRTKEQVMLLIDIELAYMNTNHEDFIGFANAQQRSNQMNKKKTSGNQDEILVIRKGWLTINNIGIMKGGSKEYWFVLTAENLSWYKDDEEKEKKYMLSVDNLKLRDVEKGFMSSKHIFALFNTEQRNVYKDYRQLELACETQEEVDSWKASFLRAGVYPERVGDKEKASETEENGSDSFMHSMDPQLERQVETIRNLVDSYMAIVNKTVRDLMPKTIMHLMINNTKEFIFSELLANLYSCGDQNTLMEESAEQAQRRDEMLRMYHALKEALSIIGDINTTTVSTPMPPPVDDSWLQVQSVPAGRRSPTSSPTPQRRAPAVPPARPGSRGPAPGPPPAGSALGGAPPVPSRPGASPDPFGPPPQVPSRPNRAPPGVPSRSGQASPSRPESPRPPFDL
binding: binds

Next, values leading:

binding: binds
B4: EH domain-containing protein 3 (protein, UniProt Q8R491 1-535)
chain: MFSWLGNDDRRKKDPEVFQTVSEGLKKLYKTKLLPLEEYYRFHEFHSPALEDADFDNKPMVLLVGQYSTGKTTFIRYLLEQDFPGMRIGPEPTTDSFIAVMQGDVEGIIPGNALVVDPKKPFRKLNAFGNAFLNRFVCAQLPNAVLESISVIDTPGILSGEKQRISRGYDFAAVLEWFAERVDRIILLFDAHKLDISDEFSEVIKALKNHEDKMRVVLNKADQIETQQLMRVYGALMWSLGKIVNTPEVIRVYIGSFWSHPLLIPDNRKLFEAEEQDLFKDIQSLPRNAALRKLNDLIKRARLAKVHAYIISSLKKEMPSVFGKDTKKKELVNNLAEIYGRIEREHQISPGDFPNLKRMQDQLQAQDFSKFQPLKSKLLEVVDDMLAHDIAQLMVLVRQEETQRPVQMVKGGAFEGTLQGPFGHGYGEGAGEGIDDAEWVVARDKPMYDEIFYTLSPVDGKITGANAKKEMVRSKLPNSVLGKIWKLADIDKDGMLDDEEFALANHLIKVKLEGHELPSELPAHLLPPSKRKVAE

binding: binds
B5: Excitatory amino acid transporter 1 (protein, UniProt P24942 1-543)
chain: MTKSNGEEPRMGSRMERFQQGVRKRTLLAKKKVQNITKEDVKSYLFRNAFVLLTVSAVIVGTILGFALRPYKMSYREVKYFSFPGELLMRMLQMLVLPLIISSLVTGMAALDSKASGKMGMRAVVYYMTTTIIAVVIGIIIVIIIHPGKGTKENMYREGKIVQVTAADAFLDLIRNMFPPNLVEACFKQFKTSYEKRSFKVPIQANETLLGAVINNVSEAMETLTRIREEMVPVPGSVNGVNALGLVVFSMCFGFVIGNMKEQGQALREFFDSLNEAIMRLVAVIMWYAPLGILFLIAGKILEMEDMGVIGGQLAMYTVTVIVGLLIHAVIVLPLLYFLVTRKNPWVFIGGLLQALITALGTSSSSATLPITFKCLEENNGVDKRITRFVLPVGATINMDGTALYEALAAIFIAQVNNFDLNFGQIITISITATAASIGAAGIPQAGLVTMVIVLTSVGLPTDDITLIIAVDWFLDRLRTTTNVLGDSLGAGIVEHLSRHELKNRDVEMGNSVIEENEMKKPYQLIAQDNEPEKPVADSETKM

binding: binds
B6: Excitatory amino acid transporter 4 (protein, UniProt O35921 1-561)
chain: MSSHGNSLFLRESGAGGGCLQGLQDSLQQRALRTRLRLQTMTREHVRRFLRRNAFILLTVSAVIIGVSLAFALRPYQLTYRQIKYFSFPGELLMRMLQMLVLPLIVSSRVTGMASLDNKATGRMGMRAAVYYMVTTVIAVFIGILMVTIIHPGKGSKEGLHREGRIETVPTADAFMDLVRNMFPPNLVEACFKQFKTQYSTRVVTRTIVRTDNGSELGASISPPSSAENETSILENVTRALGTLQEVISFEETVPVPGSANGINALGLVVFSVAFGLVIGGMKHKGRVLRDFFDSLNEAIMRLVGIIIWYAPVGILFLIAGKILEMEDMAVLGGQLGMYTLTVIVGLFLHAGGVLPLIYFLVTHRNPFPFIGGILQALITAMGTSSSSATLPITFRCLEEGLGVDRRITRFVLPVGATVNMDGTALYEALAAIFIAQVNNYELNLGQITTISITATAASVGAAGIPQAGLVTMVIVLTSVGLPTEDITLIIAVDWFLDRLRTMTNVLGDSIGAAVIEHLSQRELELQEAELTLPSLGKPYKSLMAQAKGASRGRGGNESVM

These are yes or no findings as the source states them, for the method shown. In cells and extracts the contact can be indirect. These calls come from enrichment with a bait or labelling near it, and not all partners need be listed. Each block holds one binder with its values, some of them ahead of it.
